Source: paper PMC12080455
No constants are given. Whether binding was seen depends on the method and setting. In cells and extracts the contact can be indirect. A yes stands for co-enrichment or nearness to the bait. Other partners may have been found.

Sequences of proteins named here, by UniProt entry; tags and fusion partners are left off.
UniProt Q92688: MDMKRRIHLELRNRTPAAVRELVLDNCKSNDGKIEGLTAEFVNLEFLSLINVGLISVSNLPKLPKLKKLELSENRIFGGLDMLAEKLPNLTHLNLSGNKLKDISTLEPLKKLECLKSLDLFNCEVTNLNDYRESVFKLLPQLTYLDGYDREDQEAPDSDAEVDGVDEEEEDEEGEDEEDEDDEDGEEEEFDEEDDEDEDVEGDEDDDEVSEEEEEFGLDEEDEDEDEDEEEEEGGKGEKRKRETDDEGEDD
UniProt Q5VWQ0: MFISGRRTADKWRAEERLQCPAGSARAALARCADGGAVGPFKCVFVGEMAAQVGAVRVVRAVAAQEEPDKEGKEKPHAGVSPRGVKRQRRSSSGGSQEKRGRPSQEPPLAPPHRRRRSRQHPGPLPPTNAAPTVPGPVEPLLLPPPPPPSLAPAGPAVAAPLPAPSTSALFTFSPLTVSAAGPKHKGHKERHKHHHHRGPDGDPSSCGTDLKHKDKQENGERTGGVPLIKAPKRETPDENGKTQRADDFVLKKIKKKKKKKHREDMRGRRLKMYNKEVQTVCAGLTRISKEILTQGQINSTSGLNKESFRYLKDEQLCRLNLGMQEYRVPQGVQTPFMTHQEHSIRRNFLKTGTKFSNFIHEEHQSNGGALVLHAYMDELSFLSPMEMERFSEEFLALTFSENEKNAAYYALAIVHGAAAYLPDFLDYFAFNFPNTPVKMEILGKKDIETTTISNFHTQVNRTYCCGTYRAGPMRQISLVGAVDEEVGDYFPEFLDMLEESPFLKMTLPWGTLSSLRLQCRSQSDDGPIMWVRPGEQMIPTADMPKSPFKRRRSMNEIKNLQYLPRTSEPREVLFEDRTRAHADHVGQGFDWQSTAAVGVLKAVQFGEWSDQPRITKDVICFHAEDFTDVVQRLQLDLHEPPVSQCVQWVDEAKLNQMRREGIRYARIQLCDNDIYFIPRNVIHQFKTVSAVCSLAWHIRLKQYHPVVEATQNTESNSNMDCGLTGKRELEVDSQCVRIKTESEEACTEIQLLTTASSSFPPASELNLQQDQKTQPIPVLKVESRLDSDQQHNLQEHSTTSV
UniProt Q9H9B1: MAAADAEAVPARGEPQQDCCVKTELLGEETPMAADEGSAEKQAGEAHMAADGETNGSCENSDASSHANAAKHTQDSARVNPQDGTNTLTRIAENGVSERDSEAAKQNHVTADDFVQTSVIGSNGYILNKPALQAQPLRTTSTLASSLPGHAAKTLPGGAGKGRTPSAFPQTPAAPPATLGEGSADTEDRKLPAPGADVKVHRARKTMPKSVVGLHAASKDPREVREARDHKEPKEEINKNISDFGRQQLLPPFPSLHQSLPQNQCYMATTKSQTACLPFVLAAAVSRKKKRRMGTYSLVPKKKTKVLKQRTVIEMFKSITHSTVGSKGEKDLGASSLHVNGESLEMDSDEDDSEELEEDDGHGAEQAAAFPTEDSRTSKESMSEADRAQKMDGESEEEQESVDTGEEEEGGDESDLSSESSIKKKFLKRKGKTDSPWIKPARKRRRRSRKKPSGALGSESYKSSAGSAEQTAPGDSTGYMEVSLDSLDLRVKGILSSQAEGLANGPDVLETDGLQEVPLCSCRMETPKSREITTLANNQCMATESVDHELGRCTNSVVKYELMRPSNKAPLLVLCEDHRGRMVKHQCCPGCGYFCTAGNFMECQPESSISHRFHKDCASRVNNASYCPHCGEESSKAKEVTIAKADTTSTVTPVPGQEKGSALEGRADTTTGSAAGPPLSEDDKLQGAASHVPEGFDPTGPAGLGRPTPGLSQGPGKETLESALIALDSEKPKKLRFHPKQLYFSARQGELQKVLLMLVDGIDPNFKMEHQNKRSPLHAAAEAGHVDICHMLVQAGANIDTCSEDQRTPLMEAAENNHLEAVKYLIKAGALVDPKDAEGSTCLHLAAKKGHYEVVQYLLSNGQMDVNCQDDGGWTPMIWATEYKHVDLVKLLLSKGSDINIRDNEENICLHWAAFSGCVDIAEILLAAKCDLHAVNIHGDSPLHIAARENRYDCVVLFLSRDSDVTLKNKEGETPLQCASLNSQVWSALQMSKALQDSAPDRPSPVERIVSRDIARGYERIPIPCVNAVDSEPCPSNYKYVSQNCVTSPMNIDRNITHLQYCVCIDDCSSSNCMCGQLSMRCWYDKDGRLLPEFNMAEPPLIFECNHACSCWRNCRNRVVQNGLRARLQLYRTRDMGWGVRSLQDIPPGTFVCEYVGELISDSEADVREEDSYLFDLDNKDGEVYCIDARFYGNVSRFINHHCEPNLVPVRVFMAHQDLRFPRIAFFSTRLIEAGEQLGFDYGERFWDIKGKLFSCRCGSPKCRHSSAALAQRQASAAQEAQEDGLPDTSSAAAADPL
UniProt Q9Y5B9: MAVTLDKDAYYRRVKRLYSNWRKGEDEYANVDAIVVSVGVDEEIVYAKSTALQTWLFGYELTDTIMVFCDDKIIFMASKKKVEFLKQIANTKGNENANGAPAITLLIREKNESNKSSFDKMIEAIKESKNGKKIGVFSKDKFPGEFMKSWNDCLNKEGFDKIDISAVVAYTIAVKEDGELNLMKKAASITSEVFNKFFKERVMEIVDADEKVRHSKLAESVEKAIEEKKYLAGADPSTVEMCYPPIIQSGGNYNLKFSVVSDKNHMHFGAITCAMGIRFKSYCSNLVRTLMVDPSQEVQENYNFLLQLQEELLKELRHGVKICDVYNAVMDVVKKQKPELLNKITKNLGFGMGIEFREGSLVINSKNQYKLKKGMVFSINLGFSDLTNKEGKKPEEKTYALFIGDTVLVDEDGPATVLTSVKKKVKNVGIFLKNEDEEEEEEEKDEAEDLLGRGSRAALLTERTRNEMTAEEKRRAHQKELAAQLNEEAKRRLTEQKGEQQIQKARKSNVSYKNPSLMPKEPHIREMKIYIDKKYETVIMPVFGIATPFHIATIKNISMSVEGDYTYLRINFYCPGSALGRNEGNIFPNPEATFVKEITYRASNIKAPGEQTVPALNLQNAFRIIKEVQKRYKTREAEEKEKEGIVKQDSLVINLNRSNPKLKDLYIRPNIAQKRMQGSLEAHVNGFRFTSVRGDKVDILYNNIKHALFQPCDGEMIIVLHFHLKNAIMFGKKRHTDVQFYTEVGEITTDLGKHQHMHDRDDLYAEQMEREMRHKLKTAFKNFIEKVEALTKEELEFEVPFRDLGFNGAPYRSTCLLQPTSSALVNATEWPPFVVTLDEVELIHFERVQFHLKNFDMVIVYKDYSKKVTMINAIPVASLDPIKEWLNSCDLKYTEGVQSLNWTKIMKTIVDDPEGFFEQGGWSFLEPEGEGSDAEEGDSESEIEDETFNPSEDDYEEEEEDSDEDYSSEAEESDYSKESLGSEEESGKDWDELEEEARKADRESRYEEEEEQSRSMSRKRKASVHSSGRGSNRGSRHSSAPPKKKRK
UniProt P39687: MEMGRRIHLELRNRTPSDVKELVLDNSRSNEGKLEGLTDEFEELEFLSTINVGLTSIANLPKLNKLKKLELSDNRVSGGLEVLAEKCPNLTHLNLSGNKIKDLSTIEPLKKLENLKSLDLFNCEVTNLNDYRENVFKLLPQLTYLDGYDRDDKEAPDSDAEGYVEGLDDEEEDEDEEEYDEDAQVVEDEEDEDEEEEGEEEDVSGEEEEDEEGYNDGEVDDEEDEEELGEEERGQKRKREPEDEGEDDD
UniProt Q96KQ7: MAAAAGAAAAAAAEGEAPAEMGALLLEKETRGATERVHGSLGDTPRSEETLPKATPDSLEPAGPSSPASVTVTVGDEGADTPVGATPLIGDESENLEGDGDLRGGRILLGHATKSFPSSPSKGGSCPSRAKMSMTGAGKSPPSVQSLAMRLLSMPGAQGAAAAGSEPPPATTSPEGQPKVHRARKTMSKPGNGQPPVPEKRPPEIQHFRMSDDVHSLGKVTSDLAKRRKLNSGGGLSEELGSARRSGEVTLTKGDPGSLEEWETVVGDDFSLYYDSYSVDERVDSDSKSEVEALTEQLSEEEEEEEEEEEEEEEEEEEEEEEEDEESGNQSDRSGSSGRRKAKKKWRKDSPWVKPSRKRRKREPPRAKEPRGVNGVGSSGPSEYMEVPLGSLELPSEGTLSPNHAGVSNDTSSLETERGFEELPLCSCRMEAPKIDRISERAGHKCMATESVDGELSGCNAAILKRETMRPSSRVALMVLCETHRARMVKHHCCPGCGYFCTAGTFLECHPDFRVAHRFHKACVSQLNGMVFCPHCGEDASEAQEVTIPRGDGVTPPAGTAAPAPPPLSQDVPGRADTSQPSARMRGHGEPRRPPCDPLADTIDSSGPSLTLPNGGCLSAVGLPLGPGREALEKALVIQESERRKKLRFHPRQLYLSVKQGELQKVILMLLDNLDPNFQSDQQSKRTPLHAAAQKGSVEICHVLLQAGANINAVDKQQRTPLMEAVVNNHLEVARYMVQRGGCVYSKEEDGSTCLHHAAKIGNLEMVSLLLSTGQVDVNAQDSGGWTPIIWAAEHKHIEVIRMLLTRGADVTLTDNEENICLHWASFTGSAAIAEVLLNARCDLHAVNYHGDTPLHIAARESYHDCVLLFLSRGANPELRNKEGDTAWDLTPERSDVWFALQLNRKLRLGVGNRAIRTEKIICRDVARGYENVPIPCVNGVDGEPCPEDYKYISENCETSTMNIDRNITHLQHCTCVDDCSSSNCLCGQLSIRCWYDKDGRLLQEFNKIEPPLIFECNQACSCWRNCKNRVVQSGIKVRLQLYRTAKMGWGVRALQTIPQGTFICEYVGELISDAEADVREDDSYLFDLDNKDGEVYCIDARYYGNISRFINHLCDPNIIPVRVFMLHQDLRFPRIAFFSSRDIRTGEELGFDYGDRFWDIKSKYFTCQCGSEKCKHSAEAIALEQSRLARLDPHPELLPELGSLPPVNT
UniProt P67870: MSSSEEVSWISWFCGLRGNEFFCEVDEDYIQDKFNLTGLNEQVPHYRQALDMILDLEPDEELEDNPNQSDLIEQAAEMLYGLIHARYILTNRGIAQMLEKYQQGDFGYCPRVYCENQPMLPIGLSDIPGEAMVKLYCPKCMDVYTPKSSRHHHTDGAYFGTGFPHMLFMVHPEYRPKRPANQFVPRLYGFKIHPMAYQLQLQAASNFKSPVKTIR
UniProt Q9H0E9: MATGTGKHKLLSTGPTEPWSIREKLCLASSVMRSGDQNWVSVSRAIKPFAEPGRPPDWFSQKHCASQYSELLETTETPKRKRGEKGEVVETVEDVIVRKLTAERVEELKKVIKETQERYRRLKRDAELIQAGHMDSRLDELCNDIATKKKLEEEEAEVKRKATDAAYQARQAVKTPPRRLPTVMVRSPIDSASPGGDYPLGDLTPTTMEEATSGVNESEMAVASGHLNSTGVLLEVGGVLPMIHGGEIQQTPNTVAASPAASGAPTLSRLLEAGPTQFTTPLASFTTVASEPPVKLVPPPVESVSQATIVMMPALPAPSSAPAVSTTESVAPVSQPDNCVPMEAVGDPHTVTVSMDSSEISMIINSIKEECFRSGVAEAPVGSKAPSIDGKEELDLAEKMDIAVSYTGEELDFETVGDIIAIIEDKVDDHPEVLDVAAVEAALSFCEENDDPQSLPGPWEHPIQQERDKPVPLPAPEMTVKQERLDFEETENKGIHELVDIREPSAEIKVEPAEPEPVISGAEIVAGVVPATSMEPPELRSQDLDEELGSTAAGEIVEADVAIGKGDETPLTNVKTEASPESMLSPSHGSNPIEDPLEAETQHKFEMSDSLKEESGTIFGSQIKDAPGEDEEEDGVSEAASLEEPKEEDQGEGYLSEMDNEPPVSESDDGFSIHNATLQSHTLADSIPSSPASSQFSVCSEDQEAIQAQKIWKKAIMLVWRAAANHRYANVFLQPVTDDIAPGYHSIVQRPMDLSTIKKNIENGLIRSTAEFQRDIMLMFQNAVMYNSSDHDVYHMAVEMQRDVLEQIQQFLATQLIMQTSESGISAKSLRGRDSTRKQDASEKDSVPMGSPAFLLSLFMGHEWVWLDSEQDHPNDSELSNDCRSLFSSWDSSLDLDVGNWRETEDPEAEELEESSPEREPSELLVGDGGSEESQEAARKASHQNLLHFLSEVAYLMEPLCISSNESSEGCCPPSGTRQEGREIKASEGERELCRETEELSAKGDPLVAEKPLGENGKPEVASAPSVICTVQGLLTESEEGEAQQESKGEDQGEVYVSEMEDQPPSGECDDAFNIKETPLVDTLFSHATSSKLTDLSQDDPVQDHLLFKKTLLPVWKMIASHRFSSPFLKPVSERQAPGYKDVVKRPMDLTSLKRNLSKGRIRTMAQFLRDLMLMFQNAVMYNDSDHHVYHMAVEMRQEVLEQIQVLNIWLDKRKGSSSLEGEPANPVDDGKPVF

Experiments:
Assay in all cases: affinity purification with mass spectrometry; FLAG-tagged CHD N- or C-terminal fragment overexpressed in Expi293 cells; nuclear fraction lysed in 50 mM Tris-HCl, 150 mM NaCl, 0.5% IGEPAL, pH 7.5, with nuclease and sonication; FLAG antibody beads 2 h; washes with 200 mM NaCl; against FLAG empty vector; triplicate
[1] = biological target: FLAG-tagged CHD6 N-terminus (human) (UniProt Q8TD26)
[2] = biological target: FLAG-tagged CHD4 N-terminus (human) (UniProt Q14839)
[3] = biological target: FLAG-tagged CHD3 N-terminus (human) (UniProt Q12873)
[4] = biological target: FLAG-tagged CHD2 N-terminus (human) (UniProt O14647)
[5] = biological target: FLAG-tagged CHD8 N-terminus (human) (UniProt Q9HCK8)
[6] = biological target: FLAG-tagged CHD1 N-terminus (human) (UniProt O14646)
[7] = biological target: FLAG-tagged CHD1 C-terminus (human) (UniProt O14646)
[8] = biological target: FLAG-tagged CHD5 N-terminus (human) (UniProt Q8TDI0)
[9] = biological target: FLAG-tagged CHD5 C-terminus (human) (UniProt Q8TDI0)
[10] = biological target: FLAG-tagged CHD3 C-terminus (human) (UniProt Q12873)

acid nuclear phosphoprotein ANP32B (from UniProt Q92688 1-251)
binding [1]: binds

casein kinase II complex subunit CSK21 (from UniProt P68400 1-391)
binding [2]: binds | binding [3]: binds

round spermatid basic protein (RSBN1) (from UniProt Q5VWQ0 1-802)
binding [4]: binds | binding [3]: binds | binding [5]: binds | binding [6]: binds

structure‐specific recognition protein (from UniProt Q08945 1-709)
binding [7]: binds

euchromatic histone lysine methyltransferase EHMT1 (from UniProt Q9H9B1 1-1298)
binding [4]: binds | binding [1]: binds | binding [6]: binds

SPT16 homolog (from UniProt Q9Y5B9 1-1047)
binding [7]: binds

acid nuclear phosphoprotein ANP32A (from UniProt P39687 1-249)
binding [1]: binds

euchromatic histone lysine methyltransferase EHMT2 (from UniProt Q96KQ7 1-1210)
binding [4]: binds | binding [1]: binds | binding [6]: binds

casein kinase II complex subunit CSK2B (from UniProt P67870 1-215)
binding [2]: binds | binding [3]: binds

bromodomain‐containing protein (BRD8) (from UniProt Q9H0E9 1-1235)
binding [8]: binds

casein kinase II complex subunit CSK22 (from UniProt P19784 1-350)
binding [2]: binds | binding [3]: binds

B1: TAF1B (protein, UniProt Q53T94 1-588)
chain: MDLEEAEEFKERCTQCAAVSWGLTDEGKYYCTSCHNVTERYQEVTNTDLIPNTQIKALNRGLKKKNNTEKGWDWYVCEGFQYILYQQAEALKNLGVGPELKNDVLHNFWKRYLQKSKQAYCKNPVYTTGRKPTVLEDNLSHSDWASEPELLSDVSCPPFLESGAESQSDIHTRKPFPVSKASQSETSVCSGSLDGVEYSQRKEKGIVKMTMPQTLAFCYLSLLWQREAITLSDLLRFVEEDHIPYINAFQHFPEQMKLYGRDRGIFGIESWPDYEDIYKKTVEVGTFLDLPRFPDITEDCYLHPNILCMKYLMEVNLPDEMHSLTCHVVKMTGMGEVDFLTFDPIAKMAKTVKYDVQAVAIIVVVLKLLFLLDDSFEWSLSNLAEKHNEKNKKDKPWFDFRKWYQIMKKAFDEKKQKWEEARAKYLWKSEKPLYYSFVDKPVAYKKREMVVNLQKQFSTLVESTATAGKKSPSSFQFNWTEEDTDRTCFHGHSLQGVLKEKGQSLLTKNSLYWLSTQKFCRCYCTHVTTYEESNYSLSYQFILNLFSFLLRIKTSLLHEEVSLVEKKLFEKKYSVKRKKSRSKKVRRH
binding [6]: binds

B2: TAF1C (protein, UniProt Q15572 1-869)
chain: MDFPSSLRPALFLTGPLGLSDVPDLSFMCSWRDALTLPEAQPQNSENGALHVTKDLLWEPATPGPLPMLPPLIDPWDPGLTARDLLFRGGCRYRKRPRVVLDVTEQISRFLLDHGDVAFAPLGKLMLENFKLEGAGSRTKKKTVVSVKKLLQDLGGHQPWGCPWAYLSNRQRRFSILGGPILGTSVASHLAELLHEELVLRWEQLLLDEACTGGALAWVPGRTPQFGQLVYPAGGAQDRLHFQEVVLTPGDNPQFLGKPGRIQLQGPVRQVVTCTVQGESKALIYTFLPHWLTCYLTPGPFHPSSALLAVRSDYHCAVWKFGKQWQPTLLQAMQVEKGATGISLSPHLPGELAICSRSGAVCLWSPEDGLRQIYRDPETLVFRDSSSWRWADFTAHPRVLTVGDRTGVKMLDTQGPPGCGLLLFRLGAEASCQKGERVLLTQYLGHSSPKCLPPTLHLVCTQFSLYLVDERLPLVPMLKWNHGLPSPLLLARLLPPPRPSCVQPLLLGGQGGQLQLLHLAGEGASVPRLAGPPQSLPSRIDSLPAFPLLEPKIQWRLQERLKAPTIGLAAVVPPLPSAPTPGLVLFQLSAAGDVFYQQLRPQVDSSLRRDAGPPGDTQPDCHAPTASWTSQDTAGCSQWLKALLKVPLAPPVWTAPTFTHRQMLGSTELRREEEEGQRLGVLRKAMARGQLLLQRDLGSLPAAEPPPAPESGLEDKLSERLGEAWAGRGAAWWERQQGRTSEPGRQTRRPKRRTQLSSSFSLSGHVDPSEDTSSPHSPEWPPADALPLPPTTPPSQELTPDACAQGVPSEQRQMLRDYMAKLPPQRDTPGCATTPPHSQASSVRATRSQQHTPVLSSSQPLRKKPRMGF
binding [6]: binds

B3: barrier to autointegration factor (protein, UniProt O75531 1-89)
chain: MTTSQKHRDFVAEPMGEKPVGSLAGIGEVLGKKLEERGFDKAYVVLGQFLVLKKDEDLFREWLKDTCGANAKQSRDCFGCLREWCDAFL
binding [7]: binds

B4: TAF1D (protein, UniProt Q9H5J8 1-278)
chain: MDKSGIDSLDHVTSDAVELANRSDNSSDSSLFKTQCIPYSPKGEKRNPIRKFVRTPESVHASDSSSDSSFEPIPLTIKAIFERFKNRKKRYKKKKKRRYQPTGRPRGRPEGRRNPIYSLIDKKKQFRSRGSGFPFLESENEKNAPWRKILTFEQAVARGFFNYIEKLKYEHHLKESLKQMNVGEDLENEDFDSRRYKFLDDDGSISPIEESTAEDEDATHLEDNECDIKLAGDSFIVSSEFPVRLSVYLEEEDITEEAALSKKRATKAKNTGQRGLKM
binding [6]: binds

B5: activity‐dependent neuroprotective protein (ADNP) (protein, UniProt Q9H2P0 1-1102)
chain: MFQLPVNNLGSLRKARKTVKKILSDIGLEYCKEHIEDFKQFEPNDFYLKNTTWEDVGLWDPSLTKNQDYRTKPFCCSACPFSSKFFSAYKSHFRNVHSEDFENRILLNCPYCTFNADKKTLETHIKIFHAPNASAPSSSLSTFKDKNKNDGLKPKQADSVEQAVYYCKKCTYRDPLYEIVRKHIYREHFQHVAAPYIAKAGEKSLNGAVPLGSNAREESSIHCKRCLFMPKSYEALVQHVIEDHERIGYQVTAMIGHTNVVVPRSKPLMLIAPKPQDKKSMGLPPRIGSLASGNVRSLPSQQMVNRLSIPKPNLNSTGVNMMSSVHLQQNNYGVKSVGQGYSVGQSMRLGLGGNAPVSIPQQSQSVKQLLPSGNGRSYGLGSEQRSQAPARYSLQSANASSLSSGQLKSPSLSQSQASRVLGQSSSKPAAAATGPPPGNTSSTQKWKICTICNELFPENVYSVHFEKEHKAEKVPAVANYIMKIHNFTSKCLYCNRYLPTDTLLNHMLIHGLSCPYCRSTFNDVEKMAAHMRMVHIDEEMGPKTDSTLSFDLTLQQGSHTNIHLLVTTYNLRDAPAESVAYHAQNNPPVPPKPQPKVQEKADIPVKSSPQAAVPYKKDVGKTLCPLCFSILKGPISDALAHHLRERHQVIQTVHPVEKKLTYKCIHCLGVYTSNMTASTITLHLVHCRGVGKTQNGQDKTNAPSRLNQSPSLAPVKRTYEQMEFPLLKKRKLDDDSDSPSFFEEKPEEPVVLALDPKGHEDDSYEARKSFLTKYFNKQPYPTRREIEKLAASLWLWKSDIASHFSNKRKKCVRDCEKYKPGVLLGFNMKELNKVKHEMDFDAEWLFENHDEKDSRVNASKTADKKLNLGKEDDSSSDSFENLEEESNESGSPFDPVFEVEPKISNDNPEEHVLKVIPEDASESEEKLDQKEDGSKYETIHLTEEPTKLMHNASDSEVDQDDVVEWKDGASPSESGPGSQQVSDFEDNTCEMKPGTWSDESSQSEDARSSKPAAKKKATMQGDREQLKWKNSSYGKVEGFWSKDQSQWKNASENDERLSNPQIEWQNSTIDSEDGEQFDNMTDGVAEPMHGSLAGVKLSSQQA
binding [9]: binds | binding [10]: binds
